# PubChem BioAssay AID504764 | Drosophila RNAi Screening Center – 2011
# Aim: 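Genes whose knock-down alters Notch-dependent transcription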 (primary screen)
# Cells: Drosophila Kc167 cells
# Knock-down reagent: long dsRNA against Drosophila genes
# Timing: about 5 days (4 days dsRNA, then 24 h after transfection)
# Conditions: transfection of constitutively active membrane-tethered Notch lacking the extracellular domain, read 24 h later
# Measured: 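Firefly luciferase from an E(spl)m3 reporter with active Notch, plus control-promoter and uninduced reporter wells for normalisation; unnormalised counts, duplicate wells a and b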
# Scale: induced reporter light, run 1, well a and induced reporter light, run 1, well b: higher = more light from the Notch target reporter with active Notch; control promoter light, run 1, well a and control promoter light, run 1, well b: higher = more light from the viral control promoter (cell number, transfection, viability); uninduced reporter light, run 1, well a: higher = more light from the Notch target reporter without active Notch
# Active means: 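Wells with low control signal or poorly matching duplicates excluded; duplicates averaged; per source plate, z beyond ±2 for induced/control log2 ratio or beyond ±1.8 for induced/uninduced marks a hit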
# Meaning of the calls: active = modifier hit (raised or lowered Notch signal); inactive = not a hit
# In all, the deposit lists about 22,000 reagents; this is an unselected part of those that have a named target and a result. Of all reagents, 403 (1.9%) are marked active. 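Unnormalised raw counts per well; ratio z-scores behind the hit calls and whether each hit raises or lowers signal are not deposited.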 Entries without a mark were called inactive. Names joined by + are all predicted targets of the reagent. No sequences are given here. Not given: the amount of reagent.
gene,dsRNA,"induced reporter light, run 1, well a","induced reporter light, run 1, well b","control promoter light, run 1, well a","control promoter light, run 1, well b","uninduced reporter light, run 1, well a"
Cpr64Ad (GeneID 38511),DRSC08284,1.35e5,2.05e5,2.32e5,1.92e5,10310
CG8051 (GeneID 32925),DRSC20077,82250,92135,79790,1.08e5,8820
stck (GeneID 40999),DRSC17070,1.11e5,1.23e5,1.15e5,85040,7775
lab (GeneID 40817),DRSC12627,42110,43670,44195,45355,5190
CG42375 + CG9288,DRSC16468,1.96e5,2.14e5,1.32e5,1.45e5,13140
CG1307 (GeneID 40814),DRSC12492,91885,1.18e5,69085,71365,7540
Idh3b (GeneID 42586),DRSC16040,2.58e5,2.36e5,3.53e5,3.62e5,15270
CG34263 (GeneID 5740488),DRSC07866,1.61e5,1.54e5,1.51e5,1.63e5,15375

Next part (2 carried over from the part before).
gene,dsRNA,"induced reporter light, run 1, well a","induced reporter light, run 1, well b","control promoter light, run 1, well a","control promoter light, run 1, well b","uninduced reporter light, run 1, well a"
Idh3b (GeneID 42586),DRSC16040,2.58e5,2.36e5,3.53e5,3.62e5,15270
CG34263 (GeneID 5740488),DRSC07866,1.61e5,1.54e5,1.51e5,1.63e5,15375
Dnaaf4 (GeneID 34547),DRSC02405,1.49e5,1.51e5,77320,95645,18360
CG9743 (GeneID 43593),DRSC16552,1.50e5,1.41e5,1.97e5,1.63e5,10988
CG15740 (GeneID 32139),DRSC19706,9275,8200,19415,17885,3565
Rcd7 (GeneID 40126),DRSC10100,1.70e5,1.29e5,1.35e5,1.22e5,11150
CG3823 (GeneID 31573),DRSC18325,1.37e5,1.64e5,2.41e5,2.37e5,13010
CG3592 (GeneID 31282),DRSC18315,1.25e5,1.04e5,1.94e5,1.81e5,9265
wun2 (GeneID 53558),DRSC07566,1.77e5,1.55e5,2.05e5,1.98e5,14485
CG6321 (GeneID 39233),DRSC10623,1.16e5,1.15e5,95170,29480,9932
tsg (GeneID 32160),DRSC20380,1.34e5,1.50e5,2.17e5,2.61e5,10865
CG15128 (GeneID 37263),DRSC06550,48870,41105,40535,53090,4365
CG30109 (GeneID 246461),DRSC05675,1.18e5,1.09e5,1.61e5,1.43e5,8665
Coq5 (GeneID 32272),DRSC19849,1.42e5,1.28e5,2.93e5,2.50e5,9625
